In the supplement of paper PMC3334620:
In all, about 33,000 sequences were measured (“E-score (-0.5 to 0.5)”: median about -0.015, highest 2% from about 0.3 on). Some of the results follow.

What follows are sequences tested against T1, Abf1 (UniProt P14164) (assay: PBM E-score (8-mer binding enrichment) (E-score (-0.5 to 0.5)); higher = stronger / more preferred TF binding). Settings: protein concentration: 200 nM; construct: GST-full length.
T1 sequence: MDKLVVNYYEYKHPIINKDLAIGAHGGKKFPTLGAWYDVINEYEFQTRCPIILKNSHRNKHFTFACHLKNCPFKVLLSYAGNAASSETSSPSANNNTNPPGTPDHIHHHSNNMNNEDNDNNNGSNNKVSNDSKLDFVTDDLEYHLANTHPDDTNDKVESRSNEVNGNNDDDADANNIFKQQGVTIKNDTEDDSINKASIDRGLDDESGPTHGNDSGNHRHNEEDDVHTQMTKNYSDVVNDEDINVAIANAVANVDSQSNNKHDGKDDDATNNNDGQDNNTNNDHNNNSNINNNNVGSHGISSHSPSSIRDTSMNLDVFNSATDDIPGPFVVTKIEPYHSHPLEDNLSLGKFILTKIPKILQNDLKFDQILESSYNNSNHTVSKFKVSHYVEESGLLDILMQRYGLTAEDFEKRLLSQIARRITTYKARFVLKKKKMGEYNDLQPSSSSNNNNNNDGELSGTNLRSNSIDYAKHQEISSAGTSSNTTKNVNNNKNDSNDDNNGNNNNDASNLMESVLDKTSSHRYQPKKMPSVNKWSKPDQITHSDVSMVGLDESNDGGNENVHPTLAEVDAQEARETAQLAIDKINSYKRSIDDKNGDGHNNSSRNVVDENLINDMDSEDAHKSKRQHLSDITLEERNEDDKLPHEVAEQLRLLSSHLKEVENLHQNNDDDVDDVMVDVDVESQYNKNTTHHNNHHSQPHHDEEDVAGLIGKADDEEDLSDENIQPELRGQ
Description: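 Universal 'all 10-mer' protein binding microarrays (Agilent AMADID 015681) probed with GST-tagged S. cerevisiae TFs (full-length or DBD) made by in vitro transcription/translation (PURExpress), about 100-200 nM. Bound TF was detected with fluorescent anti-GST. Each ungapped 8-mer (which stands for itself and its reverse complement) is scored by the PBM enrichment score (E-score), a modified Wilcoxon-Mann-Whitney statistic from -0.5 to +0.5, computed with the Universal PBM Analysis Suite. Scale: above 0.35 generally sequence-specific binding.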

Sequence	PBM E-score
TAACTGCA	-0.0376
CGCTCGTA	-0.008
AAGTGAGA	0.0815
ATTCTCTC	-0.0576
ATCATCAA	0.26
TCGATGAA	0.0596
GTAGCCCA	0.0106
AGCCTGGC	-0.152
CGGAACGC	0.116
GCAGGGGA	-0.177
CGAGACTA	0.0191
CGCTTGGC	-0.0261
AGTTTAAC	-0.0718
GATGCGGC	-0.152
CGGACCTC	-0.149
GCTATAGA	-0.105
CCGGAGTC	-0.258
CTGCCTGC	-0.135
CACCCCTA	-0.207
AGTAGACC	-0.0327
CAATATGA	0.214
CACCGCCG	-0.127
AATCTCTA	0.00206
CGTTGCAA	0.0906
ATACCCTA	-0.0026

Sequence	PBM E-score
CTGTATCC	-0.0284
CAAGCTCG	-0.102
CCGTTGGC	-0.133
ATAAACGC	0.00622
GCTAAGAC	-0.0555
CTAGGGCC	-0.238
CCGATCAC	0.145
CGTGGGGA	0.219
AGGGCCAT	-0.153
AGCCCTGC	-0.143
GTTCGTCA	0.2
TAAACCGA	-0.0568
AGCCATGG	-0.128
AACGGCTT	-0.154
CTCATGTC	0.0937
GCAGGTGA	0.185
CAGATGAG	-0.00016
ATCGGTTC	-0.117
AGCCTTCC	-0.184
TACGGCTA	0.0379
GGAGCCCA	-0.193
GACTGTAA	-0.0344
GGGGCCAA	-0.149
AGAGCTGG	-0.296
ACTTAGGA	0.0859

Looked up above:
ACTTAGGA | PBM E-score: 0.0859
TACGGCTA | PBM E-score: 0.0379
GGGGCCAA | PBM E-score: -0.149

Additional records

Sequence	PBM E-score
GTAGTTAA	0.197
GCCTTTGA	-0.0527
CAGACGCG	-0.17
AGCTCCGA	-0.181
CCGCTAAG	0.167
CGGGCCCG	0.189
AGTAGATG	0.1
CAGGCCAC	-0.157
AGCACGCG	0.154
AGCTTGGC	-0.146
ACTCATTG	-0.0656
GGGAGTAA	0.126
GTGACACA	0.343
AGGGGTAC	-0.127
CTATTCAA	0.151
ACCGGGAA	-0.0303
GCCTGTTA	-0.00093
AGATGAAG	-0.247
GGCAACCA	-0.119
ATTTCTTC	0.141
AGGGGCTG	-0.29
ACTCATGG	-0.123
CTCGAACA	-0.0456
CAATTGAC	-0.101
AGTTCTAC	-0.0808

Part of the list above in another layout:
Sequence,PBM E-score
GCCTTTGA,-0.0527
AGATGAAG,-0.247

Next entries follow:

Sequence	PBM E-score
ACCGACCG	0.00671
CCGTAGCC	-0.12
ACTTACTG	0.11
CCATTGCA	-0.0801
ATTTGGCA	-0.0611
GAGACTCA	-0.168
CCACCGCC	-0.231
CTGCCCAG	-0.207
CCAGTTAG	-0.147
CTGCTTAA	-0.16
GGCTAGAC	-0.121
CGGCAACG	0.125
CTGAAGTA	0.00574
ACAACGTG	0.0819
CAGCTAAG	-0.039
GCAAATCC	-0.0515
AGCATCCA	-0.207
ATGGTTAG	-0.0847
CTCCACAC	-0.109
CTATCCTA	-0.00232
CGGTAATC	-0.0316
GCCGCCAC	-0.198
AACCGGAG	-0.0557
CTGCAAAG	-0.193
GGGGAGCA	-0.208

Sequence	PBM E-score
AGGTGCTC	-0.293
ACAGTTGC	0.0909
ATTTACCA	-0.00739
CCGCTTCC	-0.0279
CCACTTAA	-0.0973
AGCCCCAC	-0.236
AAACTCGC	-0.0402
AAGAGATC	0.0399
CATCTACG	0.205
GCAGAGGA	-0.00561
ACAGTGGC	-0.142
GGGCTGGA	-0.124
CGTTCAAG	0.165
TCCCATAA	-0.123
AACACAGT	0.0507
CAGTAACG	-0.058
TACCTCGA	0.0179
GATACCGA	-0.0334
GAGAGTAC	-0.134
GGATACCA	0.0815
AAAGCCTC	-0.0339
AAGGTCGT	0.21
AGGGAGTC	-0.127
CGGAGCTA	-0.143
AGGTGGCA	-0.106

A different layout for some results above:
Sequence | PBM E-score
AAACTCGC | -0.0402
AAGAGATC | 0.0399
CATCTACG | 0.205
GCAGAGGA | -0.00561
ACAGTGGC | -0.142
GGGCTGGA | -0.124

(cont.)

Sequence	PBM E-score
TATGCCAA	0.0855
CCGGTGAA	0.0628
AGTGGAGC	-0.277
ATAAATCA	0.145
GCATTAGA	0.0201
CCCTGCAC	0.0099
GCGCCGAC	-0.207
AACTTGAC	-0.0116
CTACGGAA	0.139
GGTACTCA	-0.112
ATAGCGAT	0.143
AGGGCCTC	-0.197
CGCGGTAA	0.0434
AAGGCTGT	-0.129
GGTCGAAA	-0.178
GACCCTAC	-0.152
CTGCCGTA	0.122
GCACCATA	-0.0753
CTTTTGTC	0.121
TATCACAA	0.25
CCCTTCAC	0.0406
GGTTCGTA	0.14
TCTTTACA	0.142
CGCTCCAC	-0.204
CATTTTAG	0.183

Sequence	PBM E-score
ACAGCCTC	-0.109
AGCTAAAA	0.136
ATGGCATG	0.198
TAGAGCAA	-0.183
ATTCGAAG	-0.0148
CAGCTCAG	-0.158
GTCGGCGA	-0.0615
TGATCGAA	0.0658
TATGCCGA	0.0554
AATGGTGT	0.0771
ATATTTCC	0.104
CCTGTCCC	-0.3
TAACGATA	0.36
AGAACCTG	-0.138
ATGTCGTA	0.235
GATTAAAC	0.102
CGTGTCCA	-0.124
AGGGACTC	-0.269
ACCAAGTG	-0.167
AGGGCGGA	-0.304
CATACAGA	0.0185
ATGGAGGC	-0.0901
